These are yes or no findings as the source states them, for the method shown. In cells and extracts the contact can be indirect. These calls come from enrichment with a bait or labelling near it, and not all partners need be listed.

Protein sequences, listed by entry. Tags and fused reporters are not part of them. Lines headed by an entry give the natural chain unless they say otherwise; changes in a name come on top.
UniProt P68831: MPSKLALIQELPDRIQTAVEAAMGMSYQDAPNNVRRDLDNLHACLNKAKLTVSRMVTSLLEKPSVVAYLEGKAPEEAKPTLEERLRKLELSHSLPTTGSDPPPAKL
UniProt Q9VLC5: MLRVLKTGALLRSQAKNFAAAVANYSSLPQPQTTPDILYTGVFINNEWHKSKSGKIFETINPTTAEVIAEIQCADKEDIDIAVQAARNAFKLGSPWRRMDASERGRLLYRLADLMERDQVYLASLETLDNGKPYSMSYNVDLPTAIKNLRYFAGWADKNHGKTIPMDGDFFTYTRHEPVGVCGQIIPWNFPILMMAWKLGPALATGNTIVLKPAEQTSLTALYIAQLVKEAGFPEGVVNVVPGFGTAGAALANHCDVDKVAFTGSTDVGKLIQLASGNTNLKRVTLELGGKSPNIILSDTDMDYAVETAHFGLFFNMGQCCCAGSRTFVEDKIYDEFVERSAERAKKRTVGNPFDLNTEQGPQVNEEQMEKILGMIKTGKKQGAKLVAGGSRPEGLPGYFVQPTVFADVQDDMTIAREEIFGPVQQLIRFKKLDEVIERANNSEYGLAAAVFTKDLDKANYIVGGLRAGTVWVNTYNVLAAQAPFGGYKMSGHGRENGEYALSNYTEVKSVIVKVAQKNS
UniProt A1Z9K0: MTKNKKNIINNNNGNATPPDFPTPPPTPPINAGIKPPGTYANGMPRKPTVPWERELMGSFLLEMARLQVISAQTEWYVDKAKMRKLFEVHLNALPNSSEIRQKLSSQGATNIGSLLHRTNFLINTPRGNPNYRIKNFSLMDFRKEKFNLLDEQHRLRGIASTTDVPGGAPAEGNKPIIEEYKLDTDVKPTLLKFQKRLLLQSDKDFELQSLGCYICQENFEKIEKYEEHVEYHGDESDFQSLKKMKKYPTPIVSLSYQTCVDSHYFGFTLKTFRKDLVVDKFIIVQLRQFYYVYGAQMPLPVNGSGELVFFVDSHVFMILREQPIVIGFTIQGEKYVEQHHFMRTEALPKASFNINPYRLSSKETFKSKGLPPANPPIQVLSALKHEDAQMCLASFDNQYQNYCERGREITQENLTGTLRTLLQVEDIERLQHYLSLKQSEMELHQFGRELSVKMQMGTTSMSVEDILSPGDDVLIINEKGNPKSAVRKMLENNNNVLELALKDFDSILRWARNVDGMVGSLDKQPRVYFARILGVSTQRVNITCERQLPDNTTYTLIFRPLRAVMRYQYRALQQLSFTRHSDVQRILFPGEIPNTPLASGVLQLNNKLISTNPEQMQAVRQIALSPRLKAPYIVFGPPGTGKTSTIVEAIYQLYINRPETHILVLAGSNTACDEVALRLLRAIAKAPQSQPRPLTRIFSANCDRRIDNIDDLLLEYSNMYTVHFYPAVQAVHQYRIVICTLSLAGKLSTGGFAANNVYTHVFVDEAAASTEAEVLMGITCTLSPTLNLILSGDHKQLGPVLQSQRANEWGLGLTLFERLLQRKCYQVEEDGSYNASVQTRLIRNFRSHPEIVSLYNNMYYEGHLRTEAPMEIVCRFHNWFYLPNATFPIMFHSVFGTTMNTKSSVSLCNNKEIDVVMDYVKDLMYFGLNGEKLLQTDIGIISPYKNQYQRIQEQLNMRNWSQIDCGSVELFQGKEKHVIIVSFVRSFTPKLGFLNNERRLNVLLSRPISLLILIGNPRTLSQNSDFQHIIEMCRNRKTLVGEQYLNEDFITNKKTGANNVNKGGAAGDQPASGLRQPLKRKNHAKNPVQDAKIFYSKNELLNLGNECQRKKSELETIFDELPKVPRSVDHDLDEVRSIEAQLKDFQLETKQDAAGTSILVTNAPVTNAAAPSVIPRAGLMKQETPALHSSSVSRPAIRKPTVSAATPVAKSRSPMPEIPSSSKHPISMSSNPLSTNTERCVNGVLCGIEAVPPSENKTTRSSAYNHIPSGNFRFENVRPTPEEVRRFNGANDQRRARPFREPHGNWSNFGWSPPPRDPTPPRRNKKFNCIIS
UniProt P21187: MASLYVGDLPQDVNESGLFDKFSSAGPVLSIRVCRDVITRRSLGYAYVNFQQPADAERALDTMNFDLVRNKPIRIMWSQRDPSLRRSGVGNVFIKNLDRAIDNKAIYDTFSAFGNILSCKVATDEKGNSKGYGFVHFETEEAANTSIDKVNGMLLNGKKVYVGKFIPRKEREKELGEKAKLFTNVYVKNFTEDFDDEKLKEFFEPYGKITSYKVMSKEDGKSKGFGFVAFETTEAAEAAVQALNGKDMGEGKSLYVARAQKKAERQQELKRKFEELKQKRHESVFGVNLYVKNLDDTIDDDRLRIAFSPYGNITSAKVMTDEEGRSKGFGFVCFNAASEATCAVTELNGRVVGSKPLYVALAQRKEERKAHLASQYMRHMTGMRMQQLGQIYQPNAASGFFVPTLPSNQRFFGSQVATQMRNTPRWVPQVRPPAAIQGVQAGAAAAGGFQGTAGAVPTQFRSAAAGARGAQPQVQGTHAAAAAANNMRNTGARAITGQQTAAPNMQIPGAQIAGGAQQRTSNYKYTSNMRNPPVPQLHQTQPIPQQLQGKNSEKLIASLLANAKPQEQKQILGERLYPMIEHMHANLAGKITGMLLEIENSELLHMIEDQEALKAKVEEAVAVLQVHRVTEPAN
UniProt Q9VXN3: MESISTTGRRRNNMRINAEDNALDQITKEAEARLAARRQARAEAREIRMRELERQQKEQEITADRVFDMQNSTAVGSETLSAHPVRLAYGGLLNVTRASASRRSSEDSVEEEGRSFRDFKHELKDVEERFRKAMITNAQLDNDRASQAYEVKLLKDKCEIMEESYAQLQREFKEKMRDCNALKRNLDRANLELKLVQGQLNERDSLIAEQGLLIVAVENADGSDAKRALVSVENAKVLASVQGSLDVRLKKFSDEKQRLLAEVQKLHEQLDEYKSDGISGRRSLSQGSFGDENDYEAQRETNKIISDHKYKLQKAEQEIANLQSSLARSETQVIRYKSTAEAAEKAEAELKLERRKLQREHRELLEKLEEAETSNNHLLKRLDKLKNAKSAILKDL
UniProt Q9VCU9: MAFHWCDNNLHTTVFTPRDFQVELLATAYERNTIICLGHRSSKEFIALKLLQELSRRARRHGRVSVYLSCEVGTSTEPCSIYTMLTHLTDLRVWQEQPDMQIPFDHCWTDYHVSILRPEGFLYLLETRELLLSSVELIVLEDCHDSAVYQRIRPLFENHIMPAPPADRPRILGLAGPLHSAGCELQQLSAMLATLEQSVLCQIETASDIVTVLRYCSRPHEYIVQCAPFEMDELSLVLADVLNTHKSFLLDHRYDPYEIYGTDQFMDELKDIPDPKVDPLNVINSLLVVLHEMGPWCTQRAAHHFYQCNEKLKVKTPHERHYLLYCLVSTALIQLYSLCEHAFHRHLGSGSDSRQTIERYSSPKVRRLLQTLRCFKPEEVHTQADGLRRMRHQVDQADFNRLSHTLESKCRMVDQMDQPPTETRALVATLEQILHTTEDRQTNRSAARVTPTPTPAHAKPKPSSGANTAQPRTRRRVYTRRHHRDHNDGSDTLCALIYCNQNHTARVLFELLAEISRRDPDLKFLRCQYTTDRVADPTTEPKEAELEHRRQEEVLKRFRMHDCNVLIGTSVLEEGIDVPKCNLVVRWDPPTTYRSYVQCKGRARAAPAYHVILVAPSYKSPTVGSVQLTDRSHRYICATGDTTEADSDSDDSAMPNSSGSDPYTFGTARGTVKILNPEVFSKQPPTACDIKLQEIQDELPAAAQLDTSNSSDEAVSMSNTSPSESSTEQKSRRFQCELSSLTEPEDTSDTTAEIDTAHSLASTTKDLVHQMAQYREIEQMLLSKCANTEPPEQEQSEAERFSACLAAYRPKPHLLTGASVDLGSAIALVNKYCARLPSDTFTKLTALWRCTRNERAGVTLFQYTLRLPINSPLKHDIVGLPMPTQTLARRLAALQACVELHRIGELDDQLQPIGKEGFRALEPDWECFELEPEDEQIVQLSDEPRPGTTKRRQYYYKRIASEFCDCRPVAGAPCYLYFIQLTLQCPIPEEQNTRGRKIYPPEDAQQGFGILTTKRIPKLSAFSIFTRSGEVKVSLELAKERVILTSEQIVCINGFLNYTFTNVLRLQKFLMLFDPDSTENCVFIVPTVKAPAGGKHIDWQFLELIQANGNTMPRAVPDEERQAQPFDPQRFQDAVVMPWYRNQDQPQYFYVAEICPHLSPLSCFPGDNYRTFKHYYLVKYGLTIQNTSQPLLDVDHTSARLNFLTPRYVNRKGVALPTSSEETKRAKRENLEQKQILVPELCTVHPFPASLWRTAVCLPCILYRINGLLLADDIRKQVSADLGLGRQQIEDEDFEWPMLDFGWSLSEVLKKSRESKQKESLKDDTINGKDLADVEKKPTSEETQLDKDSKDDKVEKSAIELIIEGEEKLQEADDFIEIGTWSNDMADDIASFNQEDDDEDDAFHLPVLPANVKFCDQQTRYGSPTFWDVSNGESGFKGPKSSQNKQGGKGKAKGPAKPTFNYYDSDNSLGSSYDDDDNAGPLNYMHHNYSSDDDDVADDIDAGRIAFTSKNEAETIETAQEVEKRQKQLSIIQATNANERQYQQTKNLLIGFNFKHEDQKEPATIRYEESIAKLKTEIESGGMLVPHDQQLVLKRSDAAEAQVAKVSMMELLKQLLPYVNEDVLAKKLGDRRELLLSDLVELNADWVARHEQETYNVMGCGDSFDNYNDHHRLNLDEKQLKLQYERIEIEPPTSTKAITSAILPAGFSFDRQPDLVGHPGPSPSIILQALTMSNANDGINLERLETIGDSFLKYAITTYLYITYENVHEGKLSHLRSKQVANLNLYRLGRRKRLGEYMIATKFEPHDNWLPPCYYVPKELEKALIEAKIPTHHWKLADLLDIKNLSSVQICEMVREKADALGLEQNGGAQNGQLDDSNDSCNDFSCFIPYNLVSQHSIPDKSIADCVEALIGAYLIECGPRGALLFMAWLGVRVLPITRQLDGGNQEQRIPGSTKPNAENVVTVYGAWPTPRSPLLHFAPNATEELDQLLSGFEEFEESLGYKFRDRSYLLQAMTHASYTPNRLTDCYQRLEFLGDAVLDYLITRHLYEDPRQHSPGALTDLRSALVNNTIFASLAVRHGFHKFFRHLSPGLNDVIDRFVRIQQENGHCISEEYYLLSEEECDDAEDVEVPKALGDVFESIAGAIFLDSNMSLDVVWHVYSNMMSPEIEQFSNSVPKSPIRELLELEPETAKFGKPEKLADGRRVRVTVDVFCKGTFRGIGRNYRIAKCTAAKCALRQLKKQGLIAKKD
UniProt P15007: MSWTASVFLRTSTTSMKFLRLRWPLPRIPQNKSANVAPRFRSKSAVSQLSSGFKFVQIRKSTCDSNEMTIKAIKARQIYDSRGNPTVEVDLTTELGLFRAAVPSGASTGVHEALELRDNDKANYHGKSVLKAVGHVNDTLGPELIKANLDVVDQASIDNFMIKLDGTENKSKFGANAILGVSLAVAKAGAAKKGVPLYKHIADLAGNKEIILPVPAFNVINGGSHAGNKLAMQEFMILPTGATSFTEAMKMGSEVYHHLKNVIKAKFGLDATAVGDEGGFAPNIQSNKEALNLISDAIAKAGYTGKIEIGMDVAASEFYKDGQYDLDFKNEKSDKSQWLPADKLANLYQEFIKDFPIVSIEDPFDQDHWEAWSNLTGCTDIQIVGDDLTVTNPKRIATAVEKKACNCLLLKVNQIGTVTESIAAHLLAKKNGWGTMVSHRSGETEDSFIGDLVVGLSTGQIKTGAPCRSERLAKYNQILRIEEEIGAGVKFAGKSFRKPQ

The test addresses V5-tagged B2 of Flock House virus (FHV) (Flock House virus) (UniProt P68831). The test is described as follows: affinity purification with mass spectrometry; S2 cells transfected with V5-tagged B2 for 48 h; lysate in RIPA buffer immunoprecipitated with anti-V5 antibody on protein A agarose; on-bead trypsin digest, LC-MS/MS; control empty vector / anti-IgG.
Turning to ALDH (from UniProt Q9VLC5) (enzyme), the binding entry was “binds”. For CG6701 (from UniProt A1Z9K0) the value was “binds”. pAbp (from UniProt P21187 1-634): the binding entry is given as “binds”. For “Dcr-2 (from UniProt A1ZAW0 1-1722) (enzyme)” the value was “binds”. For CG8578 (from UniProt Q9VXN3) (enzyme) the value was “binds”; for “Dcr-1 (from UniProt Q9VCU9 1-2249) (enzyme)”, “binds”. For “ENO (from UniProt P15007 1-500) (enzyme)” the value was “binds”.

Source of the values: publication PMC11708023.
